In PubChem BioAssay AID504444 (National Center for Advancing Translational Sciences (NCATS), 2011):
Among all 360,000 compounds or so, about 7,500 (2.1%) were called active. This list was built around the results that the source calls inconclusive (neither active nor inactive); the mix of calls is not that of the screen. The call rests on the fitted dose curve; in most records, active means well fitted inhibition curve with a large enough effect; inconclusive means small, poorly fitted or top-dose-only effect, or effect the other way; inactive means flat fitted curve, though single readings scatter. Potencies beside an inconclusive call are fits to weak or partial responses and may not hold up.
Potency means the concentration at half of the fitted maximal effect.

Experiment: Nrf2 qHTS screen for inhibitors; further: nearly all actives have a fitted effect of over 60% in size
Details: A549 ARE-Fluc reporter, luciferase luminescence, 18-24 h; series mostly up to 46 µM
Outline: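 Nrf2 function is reported as luminescence of an ARE-controlled luciferase in A549 cells. Compounds were tested at several concentrations, and a CellTiter-Fluor read on the same wells flagged cytotoxicity.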
With `CC(CCc1ccccc1)NS(=O)(=O)c1ccccc1Cl` (configuration not stated) the Potency was “inactive”.
For `CC(=O)c1sc(N/N=C/c2cccc(O)c2)nc1C`, the Potency was “inactive”.
With `CCOc1ccc(C(=O)NC2CCN(CC(=O)NCc3ccccc3)CC2)cc1` the Potency was inconclusive: 6.51 µM [falling, full curve, poor fit].
In the case of `O=C(N/N=C/c1cccc(Oc2ccccc2)c1)c1ccccc1Br`, the Potency is reported as inconclusive: 29.1 µM [falling, single point].
For `COC(=O)c1cc2n3ccccc3c(C)c(-c3ccccc3)c-2c1C(=O)OC`, the Potency was “inactive”.
For `COc1ccc(CCNC(=O)c2ccc3ccccc3n2)cc1OC`, the Potency was active: 23.1 µM.
In the case of `COC(=O)c1ccc(OC)c(CSc2nnc(COc3ccc(OC)cc3)o2)c1`, the Potency is reported as active: 13 µM.
In the case of `CSCCC(NC(=O)c1ccccc1Br)C(=O)N1CCN(C/C=C/c2ccccc2)CC1` (configuration not stated), the Potency is reported as inconclusive: 18.4 µM [falling, single point].
In the case of `O=C(c1cc(S(=O)(=O)N2CCN(c3ccccc3)CC2)ccc1Cl)N1CCCCCCC1`, the Potency is reported as active: 20.6 µM.
For `CC(=O)c1ccc(NC(=O)/C=C/c2ccc(C)o2)cc1`, the Potency was inconclusive: 20.6 µM [activator, partial curve, poor fit].
In the case of `O=C(NN=C1CCCCCC1)c1c[nH]c2ccccc12`, the Potency is reported as inconclusive: 23.1 µM [activator, partial curve].
With `COCCn1c(-c2ccc(-c3ccccc3Cl)o2)nc2c1c(=O)[nH]c(=O)n2CC(C)C` the Potency was inconclusive: 4.11 µM [falling, full curve, poor fit].
With `CCOc1ccc(NC(=O)C2CCN(S(=O)(=O)c3ccc4c(c3)CC(C)N4C(C)=O)CC2)cc1` (configuration not stated) the Potency was inconclusive: 18.4 µM [falling, partial curve, poor fit].
For `CC(=O)N1CCN(S(=O)(=O)c2cccc(C(=O)NNC(=O)Cn3nc(C)cc3C)c2)CC1`, the Potency was “inactive”.
With `CSCc1cc(N(C)C)nc(SCc2ccc(Cl)c(Cl)c2)n1` the Potency was inconclusive: 18.4 µM [falling, partial curve, poor fit].
With `FC(F)(F)c1cccc(NC(=S)N(CCCN2CCCC2)Cc2cccn2Cc2ccc(Cl)cc2)c1` the Potency was “inactive”.
In the case of `Cn1c(SCc2ccccc2)nccc1=O`, the Potency is reported as “inactive”.
For `O=C1Nc2ccccc2Nc2ccc([N+](=O)[O-])cc21`, the Potency was active: 10.3 µM.
In the case of `CCN(CC)C(=O)CSc1ncnc2sccc12`, the Potency is reported as inconclusive: 5.17 µM [activator, partial curve, poor fit].
With `O=C(c1cnn(-c2ccccc2)c1)c1ccc2ccccc2c1O` the Potency was inconclusive: 18.4 µM [activator, partial curve].
For `Cc1cc(C)cc(C(=O)NC(=S)Nc2ccc3c(c2)OCCO3)c1`, the Potency was inconclusive: 6.51 µM [activator, single point].
For `Cc1ccc(-c2csc(Cc3nc(-c4ccc5c(c4)CCC(=O)N5)cs3)n2)cc1`, the Potency was inconclusive: 18.4 µM [falling, partial curve, poor fit].
For `C/C(=N\NC(=O)Cc1ccc(F)cc1)c1ccc(F)cc1`, the Potency was “inactive”.
For `CCCCCCOc1ccc(N2C(=O)CC(S/C(N)=N/N=C(\C)c3cccs3)C2=O)cc1` (configuration not stated), the Potency was inconclusive: 25.9 µM [falling, partial curve, poor fit].
In the case of `Cc1ccc(S(=O)(=O)c2nnn3c2nc(NCc2ccc(F)cc2)c2sccc23)cc1C`, the Potency is reported as “inactive”.
In the case of `CCCCNC(=O)N1CCN(c2ccnc3cc(Cl)ccc23)CC1`, the Potency is reported as active: 10.3 µM.
For `CCN(CC)CC(=O)Nc1cc(N(C)C)nc2ccccc12`, the Potency was “inactive”.
For `C=CCn1c(SCC(=O)NCC2CCCO2)nc2scc(-c3ccc(OC)cc3)c2c1=O` (configuration not stated), the Potency was inconclusive: 3.26 µM [falling, partial curve, poor fit].
In the case of `COc1ccc(/C=N/Nc2snc(SC)c2C#N)cc1OC`, the Potency is reported as inconclusive: 0.461 µM [activator, partial curve].
For `CCOc1ccc(C(=O)/C=C/c2ccc(OC)c(OC)c2)cc1`, the Potency was inconclusive: 14.6 µM [falling, partial curve, poor fit].
With `Cc1nc2ccccc2c2oc(C(=O)NCCCN3CCC(C)CC3)cc12` the Potency was inconclusive: 29.1 µM [falling, single point].
With `CCc1ccc(OCC(=O)Nc2ccc(Cl)c(-c3nc4cc(C)cc(C)c4o3)c2)cc1` the Potency was “inactive”.
In the case of `O=C(c1cc(F)ccc1F)C1CCCN(C(=O)c2ccc(F)cc2Cl)C1` (configuration not stated), the Potency is reported as inconclusive: 20.6 µM [falling, single point].
In the case of `Cc1ccc2c(CC(=O)Nc3cccc(S(=O)(=O)N4CCOCC4)c3)coc2c1`, the Potency is reported as inconclusive: 18.4 µM [falling, partial curve].
With `C/C(=N/NC(=O)c1cccs1)c1ccc(NC(=O)COc2ccc(Cl)cc2)cc1` the Potency was inconclusive: 16.4 µM [falling, partial curve, poor fit].
With `CC(C)(C)OC(=O)NCc1nnc(-c2nc3ccccc3[nH]2)o1` the Potency was “inactive”.
For `CN1CCN(C(=O)CCN2C(=O)/C(=C\c3ccc(F)cc3)SC2=S)CC1`, the Potency was inconclusive: 13 µM [activator, partial curve, poor fit].
With `Cc1nc2ncnn2c(N2CCN(C(c3ccccc3)c3ccccc3)CC2)c1C` the Potency was inconclusive: 20.6 µM [falling, single point].
For `Cc1[nH]c2ccc(C(=O)NCCc3ccccc3Cl)cc2c1C`, the Potency was inconclusive: 25.9 µM [falling, single point].
For `CC(C)Oc1cccc(C(=O)NC(=S)Nc2ccccc2)c1`, the Potency was inconclusive: 3.66 µM [activator, partial curve].
For `Cc1ccc(-c2c[n+](CC(=O)Nc3nc(-c4ccc(F)cc4)cs3)c3n2CCC3)cc1`, the Potency was “inactive”.
With `O=C(Nc1cccc(Cl)c1)Nc1nnc(CSCCOc2ccc(Cl)cc2)s1` the Potency was inconclusive: 20.6 µM [falling, single point].
For `Cc1ccc2nc(-c3ccccn3)cc(C(=O)Nc3ccc(S(=O)(=O)N4CCOCC4)cc3)c2c1`, the Potency was inconclusive: 3.26 µM [falling, full curve].
In the case of `CCn1ncc(Br)c1C(=O)Nc1ccccc1C(F)(F)F`, the Potency is reported as “inactive”.
In the case of `Cc1ccccc1NS(=O)(=O)c1ccc(C(=O)N2CCN(c3ccccc3O)CC2)cc1`, the Potency is reported as inconclusive: 5.8 µM [falling, partial curve].
In the case of `O=C(CC1CC2CCC1C2)N1CCN(S(=O)(=O)c2ccccc2C(F)(F)F)CC1` (configuration not stated), the Potency is reported as inconclusive: 20.6 µM [falling, single point].
In the case of `COc1ccc(N2CCN(C(CNC(=O)C(=O)NCc3cccnc3)c3ccco3)CC2)cc1` (configuration not stated), the Potency is reported as “inactive”.
For `Cc1nc2ccc(S(=O)(=O)N(CC(=O)Nc3cccc(C)c3C)Cc3ccccc3)cc2s1`, the Potency was inconclusive: 4.11 µM [activator, partial curve, poor fit].
With `COc1cccc(OCc2nc3ccccc3n2C)c1` the Potency was inconclusive: 1.64 µM [activator, full curve].
For `COc1ccccc1N1CCN(C(=O)CCCCCn2c(=O)[nH]c3ccsc3c2=O)CC1`, the Potency was inconclusive: 29.1 µM [falling, single point].
In the case of `CCOc1ccc(OCC)c(NC(=O)C2CCN(c3ncccn3)CC2)c1`, the Potency is reported as inconclusive: 25.9 µM [activator, single point].
In the case of `CCN=C1SC(CC(=O)Nc2ccc(C(F)(F)F)cc2)C(=O)N1CC` (configuration not stated), the Potency is reported as inconclusive: 18.4 µM [falling, partial curve, poor fit].
For `O=C(c1cccc(F)c1)N1CCCN(C(=O)c2cccc(F)c2)CC1`, the Potency was inconclusive: 10.3 µM [activator, partial curve].
In the case of `N#C/C(=C\c1ccc(F)cc1)C(=O)Nc1ccccn1`, the Potency is reported as inconclusive: 29.1 µM [activator, single point].
For `O=C(NCc1noc2ccccc12)N1CCN(c2ccccc2F)CC1`, the Potency was inconclusive: 29.1 µM [activator, single point].
With `O=C(NNC1=Nc2ccccc2SC1)c1cccc([N+](=O)[O-])c1` the Potency was inconclusive: 18.4 µM [falling, single point].
In the case of `COc1ccc(S(=O)(=O)N2CCC(C(=O)NCC(=O)Nc3c(C)cccc3C)CC2)cc1OC`, the Potency is reported as “inactive”.
For `COC(=O)c1ccc2c(=O)n(CCCCCC(=O)O)c(=S)[nH]c2c1`, the Potency was inconclusive: 16.4 µM [falling, single point].
With `Nc1nnc(-c2cccc(F)c2)s1` the Potency was inconclusive: 1.46 µM [activator, full curve].
In the case of `COc1cccc(-c2nn(-c3ccccc3)cc2CN(C)C(C)c2ccon2)c1` (configuration not stated), the Potency is reported as inconclusive: 29.1 µM [falling, single point].
For `COc1ccc(CCN(C)c2ccc(S(=O)(=O)N3CCCC3)cn2)cc1OC`, the Potency was inconclusive: 23.1 µM [falling, partial curve, poor fit].
For `Cc1cc(C)c(NC(=O)CSCc2nc3sc(C)c(C)c3c(=O)[nH]2)c(Cl)c1`, the Potency was inconclusive: 29.1 µM [falling, single point].
For `Cc1onc(-c2ccccc2)c1-c1nnc(CN2CCN(S(=O)(=O)c3ccccc3)CC2)o1`, the Potency was inconclusive: 32.6 µM [falling, single point].
With `COc1cccc(/C=C2\SC(=S)N(N3C(=O)CCCC3=O)C2=O)c1` the Potency was “inactive”.
In the case of `Cc1ccc(OCCSc2nc3ccccc3n2CC(=O)N2CCCCC2)c(C)c1`, the Potency is reported as inconclusive: 29.1 µM [falling, single point].
In the case of `NC(=S)N/N=C/c1ccc(-c2cc(Cl)cc(Cl)c2)o1`, the Potency is reported as inconclusive: 20.6 µM [falling, single point].
In the case of `CCc1ccc2[nH]c(=O)c(CN(Cc3ccccc3)Cc3nnnn3Cc3ccccc3)cc2c1`, the Potency is reported as inconclusive: 2.06 µM [falling, partial curve, poor fit].
